For assay [1], the target named is poly(ADP-ribose) polymerase-1 (mouse (endogenous in NIH3T3)) (UniProt P11103). The assay can be described thus: co-IP; co-immunoprecipitation of endogenous TET1 and PARP-1 from NIH3T3 cell lysates; protocol in Additional file 3 (not shown).
The target in assay [2] is TET1 (mouse (endogenous in NIH3T3)) (UniProt Q3URK3). The assay is described as above.

Protein sequences, listed by entry. Tags and fused reporters are not part of them.
UniProt P11103: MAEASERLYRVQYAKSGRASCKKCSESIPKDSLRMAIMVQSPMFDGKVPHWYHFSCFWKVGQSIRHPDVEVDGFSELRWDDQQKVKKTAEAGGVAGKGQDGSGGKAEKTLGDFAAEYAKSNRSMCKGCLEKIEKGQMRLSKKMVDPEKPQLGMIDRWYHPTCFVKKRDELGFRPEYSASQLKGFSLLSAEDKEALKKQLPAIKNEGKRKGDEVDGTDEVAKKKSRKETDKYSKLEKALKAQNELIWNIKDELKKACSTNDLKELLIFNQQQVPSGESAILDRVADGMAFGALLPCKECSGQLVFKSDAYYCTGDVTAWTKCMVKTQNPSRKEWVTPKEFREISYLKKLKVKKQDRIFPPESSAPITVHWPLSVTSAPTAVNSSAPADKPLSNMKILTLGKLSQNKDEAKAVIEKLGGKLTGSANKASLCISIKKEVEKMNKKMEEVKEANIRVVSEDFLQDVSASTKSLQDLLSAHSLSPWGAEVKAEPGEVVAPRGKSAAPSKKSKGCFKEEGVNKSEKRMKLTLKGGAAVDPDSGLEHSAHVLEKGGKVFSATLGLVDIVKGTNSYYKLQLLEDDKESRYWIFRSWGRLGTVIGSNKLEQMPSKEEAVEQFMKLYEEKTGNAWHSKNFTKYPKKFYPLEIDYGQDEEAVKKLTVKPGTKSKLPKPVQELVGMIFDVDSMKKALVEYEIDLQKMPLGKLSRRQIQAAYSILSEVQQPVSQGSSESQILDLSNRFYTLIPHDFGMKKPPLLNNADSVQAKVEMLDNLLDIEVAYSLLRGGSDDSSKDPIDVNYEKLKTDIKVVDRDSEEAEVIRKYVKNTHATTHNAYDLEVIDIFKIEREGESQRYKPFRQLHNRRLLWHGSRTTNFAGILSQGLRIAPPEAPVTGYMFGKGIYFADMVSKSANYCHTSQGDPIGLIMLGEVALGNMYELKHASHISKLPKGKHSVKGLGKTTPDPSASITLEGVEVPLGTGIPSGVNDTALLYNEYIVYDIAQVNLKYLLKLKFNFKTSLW
UniProt Q3URK3: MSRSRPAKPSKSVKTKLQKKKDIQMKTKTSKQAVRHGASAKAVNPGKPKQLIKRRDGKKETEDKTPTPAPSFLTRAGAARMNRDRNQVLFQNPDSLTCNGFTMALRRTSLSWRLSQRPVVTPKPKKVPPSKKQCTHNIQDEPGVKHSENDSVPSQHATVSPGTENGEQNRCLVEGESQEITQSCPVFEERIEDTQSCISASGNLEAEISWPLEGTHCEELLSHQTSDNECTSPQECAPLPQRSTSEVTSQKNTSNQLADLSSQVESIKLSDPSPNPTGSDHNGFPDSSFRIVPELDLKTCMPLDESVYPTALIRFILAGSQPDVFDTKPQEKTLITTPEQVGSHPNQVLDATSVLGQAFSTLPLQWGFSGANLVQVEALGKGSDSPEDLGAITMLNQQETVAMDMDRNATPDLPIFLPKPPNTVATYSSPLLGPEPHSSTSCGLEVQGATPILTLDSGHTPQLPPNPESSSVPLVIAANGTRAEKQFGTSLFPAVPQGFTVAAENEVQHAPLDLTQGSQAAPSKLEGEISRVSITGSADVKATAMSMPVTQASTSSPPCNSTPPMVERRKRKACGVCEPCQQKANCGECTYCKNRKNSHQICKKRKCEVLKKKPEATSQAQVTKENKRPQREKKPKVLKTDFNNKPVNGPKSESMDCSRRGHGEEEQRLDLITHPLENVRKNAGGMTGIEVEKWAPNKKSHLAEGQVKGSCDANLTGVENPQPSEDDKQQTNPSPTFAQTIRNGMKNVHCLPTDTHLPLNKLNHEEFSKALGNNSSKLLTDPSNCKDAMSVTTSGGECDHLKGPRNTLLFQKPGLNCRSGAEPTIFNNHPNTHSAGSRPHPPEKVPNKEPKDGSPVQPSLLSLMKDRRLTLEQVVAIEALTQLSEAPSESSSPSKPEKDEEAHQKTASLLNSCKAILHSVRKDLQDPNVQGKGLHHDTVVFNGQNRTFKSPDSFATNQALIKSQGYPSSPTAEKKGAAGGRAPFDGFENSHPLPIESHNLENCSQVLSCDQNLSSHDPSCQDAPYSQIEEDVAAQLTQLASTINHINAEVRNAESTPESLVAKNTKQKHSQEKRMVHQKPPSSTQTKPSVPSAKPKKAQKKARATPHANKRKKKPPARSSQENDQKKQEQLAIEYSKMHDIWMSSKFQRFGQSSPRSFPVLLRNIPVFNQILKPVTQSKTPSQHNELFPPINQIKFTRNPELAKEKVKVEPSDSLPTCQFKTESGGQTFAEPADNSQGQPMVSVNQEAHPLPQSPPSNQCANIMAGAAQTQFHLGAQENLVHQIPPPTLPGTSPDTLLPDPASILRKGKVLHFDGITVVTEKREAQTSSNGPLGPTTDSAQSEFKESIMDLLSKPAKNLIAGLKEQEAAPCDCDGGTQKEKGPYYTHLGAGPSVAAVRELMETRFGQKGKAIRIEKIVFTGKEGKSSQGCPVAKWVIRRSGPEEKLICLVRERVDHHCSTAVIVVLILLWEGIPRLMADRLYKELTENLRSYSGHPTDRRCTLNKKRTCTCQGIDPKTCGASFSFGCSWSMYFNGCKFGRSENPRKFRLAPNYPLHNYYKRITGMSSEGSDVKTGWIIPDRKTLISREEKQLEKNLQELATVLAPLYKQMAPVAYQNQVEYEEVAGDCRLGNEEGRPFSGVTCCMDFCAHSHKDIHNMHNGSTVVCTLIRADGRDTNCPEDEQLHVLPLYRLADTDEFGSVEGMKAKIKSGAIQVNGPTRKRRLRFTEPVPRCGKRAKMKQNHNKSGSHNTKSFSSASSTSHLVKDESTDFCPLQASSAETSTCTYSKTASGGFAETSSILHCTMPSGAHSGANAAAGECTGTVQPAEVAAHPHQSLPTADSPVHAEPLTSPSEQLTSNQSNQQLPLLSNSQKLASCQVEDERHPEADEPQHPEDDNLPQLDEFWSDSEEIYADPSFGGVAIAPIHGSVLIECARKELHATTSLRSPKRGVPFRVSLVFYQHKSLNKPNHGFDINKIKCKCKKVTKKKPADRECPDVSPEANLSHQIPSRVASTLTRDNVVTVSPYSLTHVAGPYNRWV

From article PMC8985375 come the findings set out here.

These are yes or no findings as the source states them, for the method shown. Binding seen in cells or lysates may run through a third protein. Some results given as binding are weak or reduced against the parent protein; the word gives no strength.

Turning to TET1 (from UniProt Q3URK3 1-2039), the binding entry in assay [1] is given as “binds”.

Regarding “poly(ADP-ribose) polymerase-1 (from UniProt P11103 1-1013)”, in assay [2], the binding result was “binds”.
